# This is one part of the list. The main result of the screen is listed elsewhere. These columns were measured beside it and carry no call. The list favours compounds with an active or inconclusive main result. Words in brackets tell the shape of the fitted curve; partial curves, single points and poor fits give uncertain potencies.
# Assay: qHTS Assay for Lipid Storage Modulators in Drosophila S3 Cells;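 as to cell number change: cells counted by Cell Tracker Red CMTPX staining in the red channel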
# Details: BODIPY lipid droplet fluorescence, 18-24 h; for cell number change: measured here: cell count max response, cells fed with added oleic acid
# Procedure, shortened: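 Drosophila S3 cells loaded with oleic acid (400 uM, as added) and compounds at several concentrations; lipid droplets imaged by 488-nm laser-scanning cytometry, 500–530 nm intensity and object ratio to cell channel. Percent activity normalized to 20 uM Triacsin C.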
# [1] = measured here: lipid fluorescence (Fed channel) AC50, cells fed with added oleic acid
# [2] = measured here: cell number channel AC50, cells fed with added oleic acid
SMILES,cell number change [%],AC50 [1],AC50 [2]
Cc1[nH]c(=O)[nH]c(=O)c1CSc1nnc([C@H](CC(C)C)NC(=O)OC(C)(C)C)o1,4.45,"29.1 µM [rising, single point]",
Cc1ccc(/C=N\Nc2cn[nH]c(=O)c2Cl)cc1,15.3,"6.51 µM [rising, partial curve]",
Cc1ccccc1C(=O)Nc1ccccc1NC(=O)c1ccccc1Br,15.6,"29.1 µM [falling, single point]",
C#CCSc1ncc(S(=O)(=O)c2ccccc2)c(=O)[nH]1,-42.4,"1.64 µM [falling, partial curve]","29.1 µM [falling, single point]"
COC(=O)c1ccc(/C=C/C(=O)c2cccc(OC)c2)cc1,-34.7,,"29.1 µM [falling, single point]"
COc1ccccc1NS(=O)(=O)c1ccc(O)c(C(=O)OCC(=O)Nc2ccccc2F)c1,16.4,,
CCOC(=O)N1CCN(C(=O)/C(=C/c2cccc3ccccc23)NC(=O)c2ccc(OC)cc2)CC1,,"0.58 µM [rising, single point]",
Cc1ccccc1N1C(=O)c2ccccc2N2C(=O)c3ccccc3C12 (stereo not drawn),15.5,,
O=c1c2ccccc2oc2nc(-c3ccco3)n(CCc3ccccc3)c(=O)c12,-6.59,"6.51 µM [rising, single point]",
Cc1cc([N+](=O)[O-])nn1CCCC(=O)Nc1cccc(Cl)c1Cl,-1.36,,
CCOC(=O)Cn1nnnc1C(CC)N(Cc1cccs1)Cc1cc2cc(C)ccc2[nH]c1=O (stereo not drawn),-26.3,"0.651 µM [rising, single point]",
COc1ccccc1-n1c(SCC(=O)Nc2ccc(NC(C)=O)cc2)nc2c([nH]c3ccccc32)c1=O,-0.495,"0.651 µM [falling, full curve]",
COc1ccccc1NS(=O)(=O)c1ccc2nc(CCl)[nH]c2c1,,"0.184 µM [falling, full curve]",
CN(C(=O)c1ccc(-c2nn(C)c(=O)c3ccccc23)cc1)C1CCCCC1,17.9,"29.1 µM [falling, single point]",
O=c1cc(-c2ccccc2)nc2n1Cc1ccccc1-2,,"0.291 µM [rising, full curve, poor fit]","0.184 µM [rising, full curve, poor fit]"
C=C1CCN([C@@H](C)C(=O)OCc2cccc(C)c2)S(=O)(=O)c2ccccc21,13.2,"2.31 µM [rising, full curve, poor fit]",
O=C(Nc1ccc(Br)c2ccccc12)c1ccc2ccccc2c1O,-37.4,"2.06 µM [falling, full curve]","29.1 µM [falling, single point]"
CCn1ncc([N+](=O)[O-])c1C(=O)Nc1ccc(C)c(C)c1,-6.08,"4.11 µM [rising, full curve]",
CCCc1nc2scc(-c3ccc(C)cc3)c2c(=O)n1N,7.72,"3.66 µM [rising, partial curve]","2.31 µM [rising, partial curve]"
COc1ccc(OC)c(S(=O)(=O)NCc2cc(-c3ccccc3)no2)c1,3.47,,"0.631 µM [falling, full curve, poor fit]"

SMILES,cell number change [%],AC50 [1],AC50 [2]
CCOC(=O)c1c(C)[nH]c(C)c1S(=O)(=O)NCCc1sccc1C,-32.8,"0.58 µM [falling, single point]","0.0326 µM [falling, full curve, poor fit]"
CC(C(=O)N(C1CC1)C1(C(=O)Nc2ccccc2)CCCC1)N1C(=O)c2ccccc2C1=O (stereo not drawn),16.2,,
Cc1noc(C)c1CSc1ncnc2ccccc12,6.63,"29.1 µM [rising, single point]",
CCOC(=O)c1c(C)oc2c1c(C=NCc1ccccn1)c(O)c1ccccc12,-2.9,,
C[C@@H](N)C(=O)NC[C@H]1CC[C@H](C(=O)N[C@@H](Cc2ccccc2)C(=O)O)CC1,,"2.91 µM [rising, single point]","6.51 µM [rising, partial curve, poor fit]"
CON1C(=O)CN(C(C)=O)C1c1ccc(Cl)cc1Cl (stereo not drawn),9.26,"29.1 µM [falling, partial curve]",
COC(=O)c1cc(NS(=O)(=O)c2ccc(N3CCOCC3)c(N)c2)cc(C(=O)OC)c1,9.2,"3.66 µM [rising, single point]",
Cn1c(=O)c2c(nc(-c3ccccc3)n2C)n(Cc2ccccc2)c1=O,,,"1.84 µM [rising, partial curve, poor fit]"
Nc1cc(S(=O)(=O)Nc2ccccc2Cl)ccc1N1CCCC1,-2.69,,
Cc1ccc(C(=O)NNC2=NCCC2)cc1,-33.2,"0.184 µM [falling, full curve]","0.00517 µM [falling, full curve]"
C=CCNC(=S)NNC(=O)CSc1nc2ccccc2s1,,"29.1 µM [rising, single point]",
O=C(NC(Cc1ccccc1)C(=O)NC1CC1)OCc1ccccc1 (stereo not drawn),-30,"6.51 µM [falling, single point]","3.66 µM [falling, full curve, poor fit]"
O=C(Nc1nc(-c2ccccn2)cs1)c1ccc(-c2ccccc2F)o1,-63.1,"0.231 µM [falling, full curve, poor fit]","18.4 µM [falling, partial curve]"
Cc1nc2ccccc2n1C1CC(=O)N(N(C)C)C1=O (stereo not drawn),-11,"25.9 µM [falling, partial curve]",
N#CCSc1nc2ccccc2c(=O)n1CCC(=O)NC1CCCCC1,-23.7,"14.6 µM [falling, single point]",
Cc1ccc(N(C(=O)c2snc(C(N)=O)c2N)C(C(=O)NCC2CCCO2)c2c[nH]c3ccccc23)cc1 (stereo not drawn),-16.7,"3.66 µM [falling, partial curve]",
Nc1c(/C=C2/C=CC(=O)C(O)=C2)c(=O)nc2sc(CC(=O)N3CCCC3)nn12,14.1,"29.1 µM [rising, single point]",
O=Cc1c(NCc2ccccc2Cl)c2ccccc2[nH]c1=O,-16.6,"29.1 µM [falling, single point]",
C=CCn1c(SCC(=O)Nc2cccnc2Cl)nnc1-c1ccccc1F,23.7,"4.61 µM [rising, partial curve, poor fit]",
O=C(CSC1=NC(=O)C(Cc2ccccc2)C(=O)N1)NC1CCCCC1 (stereo not drawn),-25.1,"0.58 µM [falling, full curve]","0.0517 µM [falling, full curve, poor fit]"

SMILES,cell number change [%],AC50 [1],AC50 [2]
O=C(O)CCCCCNS(=O)(=O)c1cccc2c1C(=O)c1ccccc1C2=O,-20.1,"7.31 µM [falling, partial curve]",
C=CCNC(=S)NNC(=O)c1cc(O)ccc1O,-31.1,"16.4 µM [falling, single point]",
CCOc1ccc(N2CC(C(=O)NCc3ccccn3)CC2=O)cc1 (stereo not drawn),21.4,"29.1 µM [rising, single point]",
CC(C)C(=O)NN(C(=O)C(C)C)c1nc2ccccc2s1,-53.4,,"23.1 µM [falling, single point]"
CCOC(=O)C1=C(c2ccccc2)NC(=O)NC1c1ccc(OC)cc1 (stereo not drawn),14.1,,
O=C(CN(Cc1ccccc1Cl)C(=O)c1ccc(CN2CCOCC2)o1)NCC1CCCO1 (stereo not drawn),-17,"6.51 µM [falling, partial curve, poor fit]",
Cc1ccc(C)c(N(CC(=O)N/N=C/c2ccc(-c3ccc([N+](=O)[O-])cc3)o2)S(=O)(=O)c2ccccc2)c1,-28.3,"8.2 µM [falling, partial curve]",
Cc1cc(OCC(=O)Nc2sc3c(c2C#N)CC(C)(C)NC3(C)C)c(C(C)C)cc1Cl,-9.73,,"2.31 µM [rising, single point]"
CCOc1ccc(NC(=O)CSc2nnc(-c3cc(C)[nH]n3)n2N)cc1,23.8,"29.1 µM [rising, single point]",
CCOC(=O)N1CCN(Cc2nc3cc(NC(=O)c4ccco4)ccc3n2CC)CC1,26.3,"0.00461 µM [rising, full curve, poor fit]",
COCCCN1C(=O)C(=O)/C(=C(/O)c2ccccc2)C1c1ccc2c(c1)OCO2 (stereo not drawn),37.2,"25.9 µM [falling, partial curve, poor fit]","16.4 µM [rising, single point]"
Cc1nn(CC(=O)N2CC(=O)Nc3ccccc32)c(C)c1[N+](=O)[O-],25.7,"2.31 µM [rising, partial curve]",
CN(C)S(=O)(=O)c1ccc(C(=O)OCC(=O)c2csc(N3CCCCC3)n2)cc1,-4.82,,
O=C(NC1CCCCC1)n1c(=O)oc2ccc(Cl)cc21,-23.8,"1.46 µM [falling, partial curve]",
COc1cc(/C=C(/C(=O)c2cccs2)c2nc3ccccc3[nH]2)cc(OC)c1O,5.18,"2.59 µM [rising, full curve]","2.91 µM [rising, partial curve, poor fit]"
O=S(=O)(c1ccc2c(c1)OCCO2)N1CCc2ccccc21,3.95,,
Cc1cc(C)n(C(=O)c2ccc(C)c(S(=O)(=O)N3CCOCC3)c2)n1,2.23,"5.17 µM [rising, partial curve, poor fit]",
COc1ccc(Cc2nnc(NC(=O)c3ccccc3F)s2)cc1OC,-18.4,"0.58 µM [rising, single point]",

# Reformatted with bars between the fields: part of the list above.
SMILES | cell number change [%] | AC50 [1] | AC50 [2]
Cn1c(=O)c2c(nc(-c3ccccc3)n2C)n(Cc2ccccc2)c1=O |  |  | 1.84 µM [rising, partial curve, poor fit]
Nc1cc(S(=O)(=O)Nc2ccccc2Cl)ccc1N1CCCC1 | -2.69 |  | 
Cc1ccc(C(=O)NNC2=NCCC2)cc1 | -33.2 | 0.184 µM [falling, full curve] | 0.00517 µM [falling, full curve]
C=CCNC(=S)NNC(=O)CSc1nc2ccccc2s1 |  | 29.1 µM [rising, single point] | 
O=C(NC(Cc1ccccc1)C(=O)NC1CC1)OCc1ccccc1 (stereo not drawn) | -30 | 6.51 µM [falling, single point] | 3.66 µM [falling, full curve, poor fit]

# — PubChem BioAssay AID2685 (National Center for Advancing Translational Sciences (NCATS), 2010)
